Out of some 330,000 compounds screened, about 7,700 (2.3%) were called active. This list was built around the results that the source calls inconclusive (neither active nor inactive); the mix of calls is not that of the screen. Calls come from the whole dose curve; as a rule, active = well fitted inhibition curve with a large enough effect; inconclusive = small, poorly fitted or top-dose-only effect, or effect the other way; inactive = flat fitted curve, though single readings scatter. Potencies of inconclusive entries are doubtful fits and often do not repeat.
Experiment: qHTS screen for small molecules that inhibit ELG1-dependent DNA repair in human embryonic kidney (HEK293T) cells expressing luciferase-tagged ELG1; note: nearly all actives have a fitted effect of over 55% in size
Details: HEK293T ELG1-luciferase reporter, luminescence, 16 h, DNA damage induced by 5-fluorouridine; series mostly up to 46.1 µM
Outline: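 Step one: seed 2,000 cells per well. Step two: pin-transfer compound or DMSO alongside 5-fluorouridine. Step three: incubate 16 hr, 37 °C, 5% CO2. Step four: add ONE-Glo, wait 30 min, read luminescence.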
For O=C1CSC(c2cccc(F)c2)N1c1ccccc1F (stereo unspecified), the Potency was inconclusive: 11.6 µM [activator, partial curve, poor fit]. In the case of CCCCC(C(=O)O)C(C)CC(=O)Nc1cccc(C(=O)O)c1 (stereo unspecified), the Potency is reported as “inactive”. With CCc1ccc(N(C(=O)c2snc(C(N)=O)c2N)C(C(=O)NC2CCCC2)c2ccco2)cc1 (stereo unspecified) the Potency was inconclusive: 25.9 µM [inhibitor, partial curve, poor fit]. In the case of CS(=O)(=O)c1ccc2nc(NC(=O)c3cccc(NS(=O)(=O)c4ccc(F)c(F)c4)c3)sc2c1, the Potency is reported as inconclusive: 29.1 µM [inhibitor, single point]. In the case of Cc1ccc(S(=O)(=O)N2CCOCC2)cc1C(=O)OCC(=O)NCCc1ccccc1, the Potency is reported as “inactive”. With CCOC(=O)C1CCN(C(=S)Nc2cc(OC)c(OC)cc2C(=O)OC)CC1 the Potency was inconclusive: 23.1 µM [inhibitor, partial curve, poor fit]. In the case of O=C(Cc1ccc(S(=O)(=O)N2CCOCC2)s1)Nc1nc2c(s1)CCCC2, the Potency is reported as “inactive”. In the case of CCn1c(SCc2nc(-c3ccccc3)no2)nnc1-c1ccco1, the Potency is reported as “inactive”. For O=C(O)C1CCN(S(=O)(=O)c2ccc(N3CCOCC3)c([N+](=O)[O-])c2)CC1, the Potency was “inactive”. For COC(=O)CCCCCN1C(=O)NC(c2ccccc2)C(C(=O)OCc2ccccc2)=C1C (stereo unspecified), the Potency was “inactive”. For CCOC(=O)Cn1c(S(=O)(=O)Cc2ccccc2Cl)nc(-c2ccccc2)c1-c1ccccc1, the Potency was inconclusive: 4.61 µM [inhibitor, partial curve]. For CCOC(=O)C1(Cc2ccccc2C)CCCN(C(=O)CN2C(=O)CSC2=O)C1 (stereo unspecified), the Potency was inconclusive: 6.51 µM [inhibitor, single point]. With O=C(NC(=S)N1CCCCC1)c1cccs1 the Potency was “inactive”. With NC(=S)NNC(=O)Nc1ccc(Cl)c(Cl)c1 the Potency was “inactive”. With Cc1cc(OCC#N)nc(N)n1 the Potency was “inactive”. In the case of COC(=O)c1ccc(OCC(=O)N2CCCc3ccccc32)cc1, the Potency is reported as “inactive”. With CC(Sc1ncnc2sccc12)C(=O)Nc1ccc(C(N)=O)cc1 (stereo unspecified) the Potency was “inactive”. With COc1cccc(N2CCN(C(=O)C3CCC(=O)N(C4CCCCCC4)C3)CC2)c1 (stereo unspecified) the Potency was inconclusive: 25.9 µM [inhibitor, partial curve, poor fit]. In the case of O=C(O)c1ccc(Sc2nnc(-c3cccc(Br)c3)o2)c([N+](=O)[O-])c1, the Potency is reported as “inactive”. In the case of COc1cccc(NC(=O)Nc2cccc(C)n2)c1, the Potency is reported as inconclusive: 5.17 µM [activator, partial curve]. In the case of COc1ccc(/C=N/NC(=O)C(=O)Nc2ccccn2)cc1OC, the Potency is reported as “inactive”. In the case of Cc1nc(N2CCCCC2C)c2c(C)c(C(=O)Nc3ccccc3C(F)(F)F)sc2n1 (stereo unspecified), the Potency is reported as inconclusive: 29.1 µM [inhibitor, single point]. With CCc1cccc(CC)c1NC(=O)/C(C#N)=C/c1ccccc1C(F)(F)F the Potency was inconclusive: 29.1 µM [inhibitor, partial curve, poor fit]. In the case of CCCC(=O)N1CCN(c2ccc(NC(=O)c3ccc([N+](=O)[O-])o3)cc2Cl)CC1, the Potency is reported as inconclusive: 29.1 µM [inhibitor, single point]. For Cc1onc(-c2c(F)cccc2Cl)c1C(=O)Nc1ccc(Cl)c(S(=O)(=O)N(C)C)c1, the Potency was inconclusive: 29.1 µM [inhibitor, single point]. With Cc1ccc(C)c(C(C)NC(=O)c2ccc(Br)o2)c1 (stereo unspecified) the Potency was “inactive”. With COc1ccc(-c2cc(C(F)(F)F)nc(N3CCCCCC3)n2)cc1 the Potency was “inactive”. With O=c1c2ccccc2n2c(-c3cccc(Cl)c3)nnc2n1Cc1ccccc1 the Potency was inconclusive: 23.1 µM [inhibitor, single point]. In the case of COc1cc(-c2cc(-c3ccc(O)cc3)nc(N)c2C#N)ccc1O, the Potency is reported as inconclusive: 29.1 µM [inhibitor, single point]. In the case of CC(C)C[C@H](NC(=O)c1nc[nH]c1C(=O)NCc1ccc(CNC(=O)OC(C)(C)C)cc1)C(=O)OCc1ccccc1, the Potency is reported as inconclusive: 6.51 µM [activator, single point]. With COc1ccc(-c2nc(NC(=O)Cn3ccc(C(F)(F)F)n3)sc2C)cc1 the Potency was inconclusive: 16.4 µM [inhibitor, partial curve]. With CC(C)(C)C(=O)NC(=S)Nc1ccc(Cc2ccncc2)cc1 the Potency was inconclusive: 18.3 µM [inhibitor, single point]. With C=CCSc1nsc(NC(=O)Nc2ccc(F)cc2)n1 the Potency was inconclusive: 6.51 µM [inhibitor, single point]. With CC(C)S(=O)(=O)C1=NSC2=NC(=O)/C(=C\c3ccc(-c4ccccc4)o3)C(=N)N21 the Potency was “inactive”. For CCC(CO)Oc1cc(NC(=O)c2cccc(OC)c2)c2ncn(C(C)C)c2c1 (stereo unspecified), the Potency was inconclusive: 16.4 µM [inhibitor, partial curve]. In the case of COc1ccccc1OCCCC(=O)Nc1nccs1, the Potency is reported as inconclusive: 13 µM [activator, partial curve]. In the case of CCN(C(=O)CSc1n[nH]c(-c2cc(Cl)ccc2OC)n1)C1CCS(=O)(=O)C1 (stereo unspecified), the Potency is reported as “inactive”. For C#CCOC(=O)C(NC(=O)c1ccccc1)=C(C)C, the Potency was inconclusive: 23.1 µM [activator, partial curve, poor fit]. With CC(C)(C)SCCNC(=O)/C=C/c1ccc(F)cc1 the Potency was inconclusive: 18.4 µM [activator, partial curve]. For COc1cc(N)c(Cl)cc1C(=O)OCC(=O)c1ccc2c(c1)NC(=O)CO2, the Potency was active: 3.66 µM. In the case of Cn1cc(CCCC(=O)NCc2ccc(F)cc2)c2ccccc21, the Potency is reported as “inactive”. With O=C1c2ccccc2C(=O)N1CC(=O)N1c2ccccc2Sc2ccccc21 the Potency was inconclusive: 11.6 µM [activator, partial curve, poor fit]. In the case of CC(OC(=O)c1ccc(NS(=O)(=O)c2ccc3[nH]c(=O)[nH]c3c2)cc1)C(=O)Nc1ccc(Cl)cc1 (stereo unspecified), the Potency is reported as inconclusive: 18.3 µM [inhibitor, single point]. In the case of Cc1c(NC(=O)c2cc(-c3ccc(F)cc3)nc3ccccc23)c(=O)n(-c2ccccc2)n1C, the Potency is reported as active: 8.2 µM. With O=C(O)c1ccc(COc2ccc3ccccc3c2/C=C2/NC(=O)N(Cc3ccc(F)cc3)C2=O)cc1 the Potency was inconclusive: 25.9 µM [inhibitor, single point]. With Cc1cc(Nc2ccccc2)n(C(=O)c2ccc(Cl)cc2)n1 the Potency was inconclusive: 14.6 µM [activator, partial curve]. In the case of COc1ccc(/C=N\NC(=O)c2ccc([N+](=O)[O-])cc2)cc1COc1c(F)c(F)cc(F)c1F, the Potency is reported as inconclusive: 9.2 µM [inhibitor, partial curve]. For COc1ccc(OC)c(Nc2nc(-c3ccc(O)c(O)c3)cs2)c1, the Potency was inconclusive: 13 µM [inhibitor, partial curve]. With O=C(NCCc1ccc(F)cc1)C1CCCCC1 the Potency was inconclusive: 18.3 µM [activator, single point]. With C/C(=N\NC(=O)C(=O)Nc1c(C)n(C)n(-c2ccccc2)c1=O)c1ccncc1 the Potency was inconclusive: 18.3 µM [activator, single point]. In the case of Cc1ccccc1CN1CCCC(C(=O)N2CCCCC2)C1 (stereo unspecified), the Potency is reported as “inactive”. With Cc1ccc(NS(=O)(=O)c2cccc(C(=O)N3CCN(c4ncccn4)CC3)c2)cc1 the Potency was inconclusive: 25.9 µM [inhibitor, single point]. In the case of COc1ccc(C2CC(=O)C(C=NCCO)=C(O)C2)cc1 (stereo unspecified), the Potency is reported as “inactive”. In the case of COc1cc(CNn2c(C)n[nH]c2=S)cc(Cl)c1OCc1ccc(F)cc1, the Potency is reported as inconclusive: 29.1 µM [inhibitor, single point]. In the case of CC1=NNC(=O)C1CC(=O)N/N=C(\C)c1ccco1 (stereo unspecified), the Potency is reported as “inactive”. With O=S(=O)(/N=C/c1ccccc1O)c1cccs1 the Potency was “inactive”. For COc1ccc(CCNC(=O)c2ccc3nc(-c4ccco4)c(-c4ccco4)nc3c2)cc1OC, the Potency was inconclusive: 16.4 µM [inhibitor, partial curve]. In the case of CC(NCCC(c1ccccc1)c1ccccc1)c1ccccc1 (stereo unspecified), the Potency is reported as inconclusive: 29.1 µM [inhibitor, single point]. With Cc1cc([N+](=O)[O-])nn1CCCC(=O)Nc1c(C)n(C)n(-c2ccccc2)c1=O the Potency was “inactive”. In the case of Nc1ncnc(Nc2ccc(F)cc2)n1, the Potency is reported as “inactive”. With COc1ccc(NC(=O)CSc2nnc(N)s2)cc1S(=O)(=O)N1CCCCC1 the Potency was “inactive”. In the case of Cc1ccc(S(=O)(=O)c2ncccc2[N+](=O)[O-])cc1, the Potency is reported as inconclusive: 29.1 µM [activator, single point]. In the case of CCc1ccc(NC(=O)C2CCN(S(=O)(=O)c3ccc4c(c3)CC(C)N4C(C)=O)CC2)cc1 (stereo unspecified), the Potency is reported as active: 7.3 µM. With CC(=O)Nc1ccc(NC(=O)C(C)OC(=O)/C=C/c2cnc3ccccc3n2)cc1 (stereo unspecified) the Potency was inconclusive: 20.6 µM [activator, partial curve]. With Cc1ccc(NS(=O)(=O)c2ccc3c(c2)C(=O)c2ccccc2C3=O)c(C)c1 the Potency was inconclusive: 29.1 µM [inhibitor, single point]. In the case of Cc1ccccc1SCCNC(=O)CCc1ccccc1, the Potency is reported as inconclusive: 25.9 µM [activator, single point]. For CNC(=O)c1nc(C)n(-c2ccc(Cl)cc2Cl)n1, the Potency was “inactive”. In the case of Cn1nc(C(=O)Nc2ccc(Cl)c(S(=O)(=O)N3CCOCC3)c2)c2ccccc2c1=O, the Potency is reported as inconclusive: 29.1 µM [inhibitor, single point]. With CCn1c(=O)cc(OCC(=O)NC2CC2)c2ccccc21 the Potency was inconclusive: 20.6 µM [activator, partial curve]. With CC(C)CC(=O)Nc1ccccc1N1CCN(C(=O)c2ccccc2)CC1 the Potency was inconclusive: 20.6 µM [inhibitor, single point]. With CC(C)(C)c1ccc(C(=O)NCC(=O)NCC(C)(C)N2CCOCC2)cc1 the Potency was inconclusive: 2.31 µM [activator, partial curve].
Potency is the fitted concentration of half-maximal effect.
